# Where a name gives a salt, the structure may show the parent alone. ± gives the standard deviation of the averaged measurements. The list shows a part of the results. Plates or batches differ in their baseline, so values are only roughly comparable.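 The cells are a mouse kidney inner medullary collecting duct line, silenced either for the ciliary gene Rpgrip1l or with a non-targeting control siRNA.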
# Test system: mIMCD3
# Experiment: robust z score of cilia incidence (% cells with single cilium) vs plate controls; higher = more ciliated cells (rescue of cilia loss)
# Conditions: 10 µM; 48 h; siRNA: siRpgrip1l
row,Compound,robust z score of cilia incidence
1,C[C@@H]1CN(CCCn2c3ccccc3c3ccccc32)C[C@H](C)N1 [Rimcazole dihydrochloride],-394 ± 220
2,O=C1C=CC(=O)C2=C1C1c3ccccc3C2c2ccccc21,-12.9 ± 9.3
3,O=C(O)C1=CCCNC1 [Guvacine hydrochloride],-6.25 ± 2.9
4,Cc1cccc(/C=C/c2ccccc2)n1,-15.2 ± 0.84
5,C[N+](C)(C)CCCCCNCC12CC3CC(CC(C3)C1)C2,-110 ± 120
6,OC[C@H]1O[C@@H](n2cnc3c(N[C@H]4CCC[C@@H]4O)ncnc32)[C@H](O)[C@@H]1O,-20.3 ± 21
7,c1ccc2sc(N3CCN(Cc4ccc5c(c4)OCO5)CC3)nc2c1 [2-[1-(4-Piperonyl)piperazinyl]benzothiazole],-5.2 ± 4.9
8,C[C@](N)(Cc1ccc(O)c(O)c1)C(=O)O [L-(-)- α-Methyldopa],-4.77 ± 8.2
9,O=C(COc1cccc2c(=O)[nH]ccc12)c1ccccc1,-10.3 ± 1.8
10,CCN(CC)CCCCC1CCN(CC(=O)N2c3ccccc3C(=O)Nc3cccnc32)CC1,-12.2 ± 10
11,NC(=O)N/N=C/c1ccc(Oc2ccc(F)cc2)cc1,-7.53 ± 1.9
12,CCCC1O[C@@H]2C[C@H]3[C@@H]4CCC5=CC(=O)C=C[C@]5(C)[C@H]4[C@@H](O)C[C@]3(C)[C@]2(C(=O)CO)O1 (stereo not given in full) [Budesonide],-21.4 ± 0.37
13,Cn1ccc2cc3c(cc21)CCN3C(=O)Nc1cccnc1,-119 ± 99
14,NS(=O)(=O)c1nn2cc(-c3ccccc3)nc2s1,-18.01 ± 0.047
15,CCn1c(=O)n(C2=C(CO)CN(CC3CCCCCCC3)CC2)c2ccccc21,-38.3 ± 1.9
16,CN1CCC(Nc2ncc3ncnc(Nc4ccc(F)c(Cl)c4)c3n2)CC1 [BIBX 1382 dihydrochloride],-23.1 ± 13
17,c1nc(CC2CCNCC2)c[nH]1 [Immepip dihydrobromide],-8.8 ± 0.3
18,Nc1ncnc2nc(-c3ccc(N4CCOCC4)nc3)cc(-c3cccc(Br)c3)c12 [ABT 702 dihydrochloride],-11.9 ± 8.7
19,CN1[C@@H]2CC[C@H]1C[C@@H](OC(=O)c1c[nH]c3ccccc13)C2 [Tropisetron hydrochloride],-36.9 ± 1.5
20,Fc1ccc(C(c2ccc(F)cc2)N2CCN(C/C=C/c3ccccc3)CC2)cc1 [Flunarizine dihydrochloride],-22.7 ± 4.3
21,O=C1Cc2c([nH]c3ccc(Br)cc23)-c2ccccc2N1 [Kenpaullone],-31.4 ± 10
22,COC(=O)C1=C(C)NC(C)=C(C(=O)NCCCN2CCC(c3ccccc3)(c3ccccc3)CC2)C1c1ccc([N+](=O)[O-])cc1 (stereo not given),-35 ± 18
23,Cc1cc(C)c(S(=O)(=O)Nc2ccccc2C(F)(F)F)c(C)c1,-10.4 ± 1.3
24,O=c1c(-c2ccc(O)cc2)coc2cc(O)ccc12 [Daidzein],-7.76 ± 1.3
25,CN(C)CCCSC(=N)N [Dimaprit dihydrochloride],-13.3 ± 3.2

# 3 entries from above, sorted by length of the SMILES, ascending:
row,Compound,robust z score of cilia incidence
25,CN(C)CCCSC(=N)N [Dimaprit dihydrochloride],-13.3 ± 3.2
9,O=C(COc1cccc2c(=O)[nH]ccc12)c1ccccc1,-10.3 ± 1.8
16,CN1CCC(Nc2ncc3ncnc(Nc4ccc(F)c(Cl)c4)c3n2)CC1 [BIBX 1382 dihydrochloride],-23.1 ± 13

# Reference: the supplement of paper PMC12009310
